The supplement of paper PMC12067093, “Discovery and optimisation of a covalent ligand for TRIM25 and its application to targeted protein ubiquitination” (Chemical Science, 2025)
Some of the results follow.

Compound: Cc1cc(ccc1-c1ccccc1)C(=O)N1CCCN(CC1)C(=O)CCl [compound 10]
Experiment: probe-labelled cysteine peptide fold change vs DMSO (competition) (log2 fold change); higher = less target engagement (more negative = stronger competition)
Conditions: THP-1, incubation time: 4 h
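Further: competitive profiling in live THP-1 cells: cysteine peptides tagged with an iodoacetamide desthiobiotin (IA-DTB) probe, intensity after compound treatment relative to DMSO-treated cells.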

Target | probe-labelled cysteine peptide fold change (10 µM) | probe-labelled cysteine peptide fold change (50 µM)
HECTD3_Q5T447_592_DMYVPNPSCR (UniProt Q5T447) | -0.0549 | 0.0115
HLA-DRA_P01903_188_FHYLPFLPSTEDVYDCR | 0.101 | 0.278
HINT1_P49773_38_IIFEDDRCLAFHDISPQAPTHFLVIPK (UniProt P49773) | -0.358 | -0.567
HECTD4_Q9Y4D8_2036_DGAWTNPVGTCLFHNNGR (UniProt Q9Y4D8) | 0.0956 | 0.212
HELB_Q8NG08_127_HICALFLK (UniProt Q8NG08) | -0.086 | -0.0379
HDAC3_O15379_268_LGCFNLSIR (UniProt O15379) | -0.0586 | 0.0393
HEATR5B_Q9P2D3_1262_IINLCENADQAHFDLALAR (UniProt Q9P2D3) | -0.034 | 0.126
HERC4_Q5GLZ8_392_CPNPTK (UniProt Q5GLZ8) | -0.121 | -0.328
HELB_Q8NG08_368_AIAFSICDLMK (UniProt Q8NG08) | 0.301 | -0.0621
HCFC1_P51610_1872_VAGINACGR (UniProt P51610) | -0.152 | -0.0638
HEATR5B_Q9P2D3_1166_LCSDIHDTLGHMLSSLAVEK (UniProt Q9P2D3) | -0.0206 | -0.0886
HDAC6_Q9UBN7_539_PATEAELLTCHSAEYVGHLR (UniProt Q9UBN7) | -0.137 | 0.302
HECTD1_Q9ULT8_1855_LLQLSCNGNVK (UniProt Q9ULT8) | -0.402 | -0.535
HEATR1_Q9H583_1263_QLILSCLLNICQK (UniProt Q9H583) | 0.0232 | 0.134
HDGFL2_Q7Z4V5-2_631_CGSSEDLHDVR (UniProt Q7Z4V5) | 0.0376 | -0.265
HK3_P52790_840_AAQLCGAGVAAVVEK (UniProt P52790) | 0.169 | -0.0558
HK1_P19367_368+375_LGVEPSDDDCVSVQHVCTIVSFR (UniProt P19367) | -0.25 | 0.0499
HCK_P08631_482_MPRPENCPEELYNIMMR (UniProt P08631) | 0.0136 | -0.146
HDAC8_Q9BY41_153_KDEASGFCYLNDAVLGILR (UniProt Q9BY41) | -0.0393 | 0.0564
HERC2_O95714_1201_ERDDHEELAWPGIMESFFTGQNCR (UniProt O95714) | -0.0998 | -0.244
HDAC6_Q9UBN7_523+539_CLTLTPRPATEAELLTCHSAEYVGHLR (UniProt Q9UBN7) | -0.21 | -0.0913

Target | probe-labelled cysteine peptide fold change (10 µM) | probe-labelled cysteine peptide fold change (50 µM)
HDAC7_Q8WUI4_533_HQCSCGDNSR (UniProt Q8WUI4) | 0.181 | 0.421
HELZ_P42694_101_AVLCCMQLK (UniProt P42694) | -0.198 | -1.11
HDAC1_Q13547_12_KVCYYYDGDVGNYYYGQGHPMK (UniProt Q13547) | 0.0487 | -0.337
HDHD2_Q9H0R4_244_INPPPYLTCESFPHAVDHILQHLL (UniProt Q9H0R4) | -0.0718 | 0.187
HLA-A_P01892_125_MYGCDVGSDWR (UniProt P01892) | -0.124 | -0.0856
HEATR1_Q9H583_1899_AQHSENDLEEVGKTENCIIDCLVAMVVK (UniProt Q9H583) | 0.0405 | 0.317
HECTD1_Q9ULT8_487_GHSEVVAILQSPGDWMCPVNK (UniProt Q9ULT8) | 0.0516 | -0.292
HDLBP_Q00341_683_SIMEECGGVHIHFPVEGSGSDTVVIRGPSSDVEK (UniProt Q00341) | 0.134 | -0.0608
HDAC4_P56524_667_HQCTCGSSSSHPEHAGR (UniProt P56524) | 0.236 | 0.0223
HECTD1_Q9ULT8_146_ESGAVFEAGGLNCVLTFIR (UniProt Q9ULT8) | 0.0977 | 0.359
HDAC2_Q92769_285_CVEVVK (UniProt Q92769) | 0.0827 | 0.14
HDAC9_Q9UKV0_534_SDSSACVDDTLGQVGAVK (UniProt Q9UKV0) | 0.0654 | -0.0512
HERC2_O95714_914_ALSALLPCAVSGNEVNISPGRR (UniProt O95714) | -0.0136 | -0.391
HLA-C_P04222_345_GGSCSQAASSNSAQGSDESLIACK (UniProt P04222) | -0.3 | -0.868
HDAC6_Q9UBN7_539_CLTLTPRPATEAELLTCHSAEYVGHLR (UniProt Q9UBN7) | -0.173 | -0.424
HDAC4_P56524_777_LAVGCVVELVFK (UniProt P56524) | 0.157 | 0.082
HCFC1_P51610_1886+1895_TCLPGFPGAPCAIK (UniProt P51610) | -0.0598 | -0.236
HEATR5B_Q9P2D3_1693_EACTVLGEGGDSGGLIPGK (UniProt Q9P2D3) | -0.244 | 0.155
HK2_P52789_438_LVPGCDVR (UniProt P52789) | -0.0685 | 0.204
HECA_Q9UBI9_434_ALPVFEQFPLVDGTLFLSPSRHDEIEYDVPCHLQGR (UniProt Q9UBI9) | 0.516 | -0.356
HMGXB4_Q9UGU5_418_NMSAYQVFCK (UniProt Q9UGU5) | 0.05 | 0.304

Target | probe-labelled cysteine peptide fold change (10 µM) | probe-labelled cysteine peptide fold change (50 µM)
HECTD4_Q9Y4D8_2097_VYFTYCGQR (UniProt Q9Y4D8) | 0.0658 | 0.211
HCK_P08631_241_LSVPCMSSK (UniProt P08631) | -0.0986 | 0.102
HLA-C_P04222_364_GGSCSQAASSNSAQGSDESLIACK (UniProt P04222) | -0.0201 | -0.474
HERC1_Q15751_3818_DVLVVNCTAEWAAANHVLATCR (UniProt Q15751) | 0.0212 | 0.00404
HCK_P08631_48_TETSASPHCPVYVPDPTSTIK (UniProt P08631) | -0.245 | -0.196
HECTD3_Q5T447_744_VCGDPEVTVDALR (UniProt Q5T447) | -0.0665 | 0.255
HECTD3_Q5T447_356_IVECRDDGIDVR (UniProt Q5T447) | 0.0162 | -0.165
HEATR1_Q9H583_303_DGLSCLIVLLQR (UniProt Q9H583) | -0.377 | 0.47
HERC2_O95714_2609_DGLHDLNVQCDWQQK (UniProt O95714) | -0.111 | 0.125
HGS_O14964_166_APDWVDAEECHR (UniProt O14964) | -0.00361 | -0.0649
HERC4_Q5GLZ8_144_SLSDIQIVQVACGYYHSLALSK (UniProt Q5GLZ8) | -0.071 | -0.313
HEATR5A_Q86XA9_1635_QIICAAQEHVK (UniProt Q86XA9) | 0.0658 | 0.171
HINT1_P49773_38_CLAFHDISPQAPTHFLVIPK (UniProt P49773) | 0.0727 | 0.0613
HIP1_O00291_613_LASTEESMCQLAK (UniProt O00291) | -0.298 | -0.336
HK1_P19367_256_MCINTEWGAFGDDGSLEDIRTEFDREIDRGSLNPGK (UniProt P19367) | 0.000785 | -0.138
HERPUD1_Q15011_68_LLLDHQCLR (UniProt Q15011) | 0.794 | 0.718
HMGCR_P04035_382_CDSVEEETGINR (UniProt P04035) | -0.0763 | -0.0428
HK1_P19367_628_ATDCVGHDVVTLLR (UniProt P19367) | -0.00485 | 0.136
HEXB_P07686_360_CWESNPK (UniProt P07686) | 0.0248 | -0.0402
HDAC10_Q969S8_23_LLWDDPECEIERPER (UniProt Q969S8) | -0.294 | -0.208
HDAC1_Q13547_273_LGCFNLTIK (UniProt Q13547) | 0.00301 | 0.28

Target | probe-labelled cysteine peptide fold change (10 µM) | probe-labelled cysteine peptide fold change (50 µM)
HDAC2_Q92769_13_VCYYYDGDIGNYYYGQGHPMKPHR (UniProt Q92769) | -0.132 | -0.362
HLTF_Q14527_812_NDIHEDNLLECPPEELAR (UniProt Q14527) | 0.00182 | 0.123
HK3_P52790_190_CSGVEGQDVVQLLR (UniProt P52790) | 0.199 | -0.106
HLA-DRB1_P04229_59_CIYNQEESVRFDSDVGEYR (UniProt P04229) | 0.231 | 0.0126
HMGCR_P04035_600_ACDSAEVK (UniProt P04035) | -0.0934 | -0.109
HK1_P19367_133_NQNVHMESEVYDTPENIVHGSGSQLFDHVAECLGDFMEK (UniProt P19367) | 0.0502 | 0.0873
HERC4_Q5GLZ8_60_HTVFVLDDGTVYTCGCNDLGQLGHEK (UniProt Q5GLZ8) | -0.221 | -0.759
HEATR3_Q7Z4Q2_173_NSIENIANETVNVLWNICECSSR (UniProt Q7Z4Q2) | 0.145 | -0.174
HMGCR_P04035_708_SVVCEAVIPAK (UniProt P04035) | 0.31 | 0.159
HERC1_Q15751_1991_LFSLLSDCMWETPIAQAK (UniProt Q15751) | 0.35 | 0.0151
HELZ_P42694_199_YGAQCTSAHSQEELAEWQK (UniProt P42694) | 0.186 | 0.276
HMGCL_P35914_323_VAQATCK (UniProt P35914) | -0.282 | -0.413
HERPUD1_Q15011_86_HVLHLVCNVK (UniProt Q15011) | 0.905 | -0.193
HGS_O14964_185+190_ACGQIFCGK (UniProt O14964) | -0.267 | -0.635
HIP1_O00291_220_SVSVTAAGQCR (UniProt O00291) | -0.0719 | -0.0351
HGS_O14964_190_ACGQIFCGK (UniProt O14964) | -0.0495 | -0.186
HEATR5B_Q9P2D3_1166_KLCSDIHDTLGHMLSSLAVEK (UniProt Q9P2D3) | 0.0501 | -0.37
HDAC10_Q969S8_145_AAANGFCVFNNVAIAAAHAK (UniProt Q969S8) | -0.0333 | -0.0233
HERC5_Q9UII4_468_DWITNMITTCLK (UniProt Q9UII4) | -0.00088 | -0.0192
HECTD1_Q9ULT8_2086_QLYFTCTAFGASR (UniProt Q9ULT8) | 0.171 | 0.328
